PubChem BioAssay AID686943 | Drosophila RNAi Screening Center | 2013
In all, the deposit lists about 23,000 reagents; this is an unselected part of those that have a named target and a result. 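Extra replicates exist only for a retested subset of genes; insulin dose and duration not given; both raised and lowered dpERK matter.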 Reagents against one gene are numbered here. Names joined by + are all predicted targets of the reagent. Further read-outs or replicates are left out here. Not stated in the record: the amount of reagent, the time to read-out.

- Screen: 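Knockdowns that increase or decrease active ERK after insulin receptor stimulation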 (primary screen)
- Cell system: Drosophila S2R+ haemocyte-like cells expressing YFP-tagged ERK (Rolled)
- Knock-down reagent: long dsRNA against Drosophila genes
- Conditions: insulin stimulation versus unstimulated cells; dose and duration not given
- Detection: 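Antibody staining for doubly phosphorylated ERK divided by ERK-YFP signal, as plate z-scores, in insulin-treated and untreated cells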
- Scale: replicate 1, z-score of dpERK with insulin: higher = more active ERK per ERK-YFP after insulin

Chchd2 (Coiled-coil-helix-coiled-coil-helix domain containing 2) → replicate 1, z-score of dpERK with insulin = -0.47
CG32104 #1 → replicate 1, z-score of dpERK with insulin = 1.07
CG32104 #2 → replicate 1, z-score of dpERK with insulin = 0.82
CG15042 → replicate 1, z-score of dpERK with insulin = -0.1
CG13992 → replicate 1, z-score of dpERK with insulin = 0.61
CG13384 → replicate 1, z-score of dpERK with insulin = 0.24
dikar #1 → replicate 1, z-score of dpERK with insulin = -0.64
dikar #2 → replicate 1, z-score of dpERK with insulin = -3.28
St1 (Sulfotransferase 1) → replicate 1, z-score of dpERK with insulin = -0.37
CG18301 → replicate 1, z-score of dpERK with insulin = 0.12
CG17928 → replicate 1, z-score of dpERK with insulin = -0.9
Oatp74D (Organic anion transporting polypeptide 74D) #1 → replicate 1, z-score of dpERK with insulin = 0.55
Oatp74D (Organic anion transporting polypeptide 74D) #2 → replicate 1, z-score of dpERK with insulin = 0.04
CG31321 → replicate 1, z-score of dpERK with insulin = -0.59
hwt (heavyweight) #1 → replicate 1, z-score of dpERK with insulin = 2.79
hwt (heavyweight) #2 → replicate 1, z-score of dpERK with insulin = 0.01
CG14646 #1 → replicate 1, z-score of dpERK with insulin = -0.06
CG14646 #2 → replicate 1, z-score of dpERK with insulin = 0.41
CG42246 → replicate 1, z-score of dpERK with insulin = -0.65
CG15861 → replicate 1, z-score of dpERK with insulin = 0
CG31343 → replicate 1, z-score of dpERK with insulin = -1
CG31206 → replicate 1, z-score of dpERK with insulin = -0.72
CG13407 → replicate 1, z-score of dpERK with insulin = 1.06
CG32945 → replicate 1, z-score of dpERK with insulin = 0.02
CG5116 → replicate 1, z-score of dpERK with insulin = 1.43
CG10345 → replicate 1, z-score of dpERK with insulin = 0.63
Arl2 (ADP ribosylation factor-like 2) → replicate 1, z-score of dpERK with insulin = 0.11
CG31454 #1 → replicate 1, z-score of dpERK with insulin = 0.34
CG31454 #2 → replicate 1, z-score of dpERK with insulin = 0.16
Cep97 (Centrosomal protein 97kDa) → replicate 1, z-score of dpERK with insulin = -0.42
inaF-B + inaF-D + inaF-C + 1 more → replicate 1, z-score of dpERK with insulin = 0.29
